Source: patent publication US20220347247A1, “USE OF CANNABINOIDS IN THE TREATMENT OF INFLAMMATION AND AGING IN THE SKIN” (priority 2021, published 2022)

Tested on: IL-8
Test: cells
Format: cell-based
Details: Homo sapiens, NHEK, 24 h
Procedure: Example 1: Effects of six compounds on normal human epidermal keratinocytes The effects on normal human epidermal keratinocytes (NHEK) were measured by assessing IL-8 and PGE2 release by PMA-stimulated NHEK using specific ELISA kits.
Keratinocytes were seeded in 96-well plates and cultured for 24 hours in culture medium. The medium was then replaced by assay medium 1 containing or not (control) the test compounds or the reference compound (staurosporine tested at 1 nM for IL-8 release or indomethacin tested at 1 μM for PGE2 release) and the cells were pre-incubated for 24 hours. After pre-incubation, the medium was removed and replaced by assay medium 1 containing or not (stimulated control) the compounds or the reference compound and containing the inducer (PMA tested at 0.5 μg/ml). The cells were then incubated for 24 hours. In parallel, a non-stimulated control condition was performed.
All experimental conditions were performed in n=3. At the end of incubation, the culture supernatants were collected for IL-8 and PGE2 quantifications.
IL-8 and PGE2 released in the culture supernatants were measured using specific ELISA kits according to the supplier's instructions.

## CN[C@@H]1C[C@H]2O[C@@](C)([C@@H]1OC)n1c3ccccc3c3c4c(c5c6ccccc6n2c5c31)C(=O)NC4 [Staurosporine, staurosporine, reference compound]
read-out: % Relative inhibition of IL-8 release
  inhibition at 1 µM: 68%
read-out: % of relative inhibition of IL-8 release
  inhibition at 0.001 µM: 68%
